# From PubChem BioAssay AID1347076 (National Center for Advancing Translational Sciences (NCATS), 2019)
# Out of some 400,000 compounds screened, about 13,000 (3.2%) were called active. This list was built around the results that the source calls inconclusive (neither active nor inactive); the mix of calls is not that of the screen. Calls follow the shape of the dose curve; as a rule, active = well fitted cell-killing curve with a large enough effect; inconclusive = small, poorly fitted or top-dose-only effect, or effect the other way; inactive = flat fitted curve, though single readings scatter. A potency beside an inconclusive call is a rough fit, not a confirmed value.
# Assay: qHTS assay for MDR1-selective chemotherapeutics: Primary screen using the drug-selected MDR subline cells KB-V1; also: nearly all actives have a fitted effect of over 60% in size
# Conditions: KB-V1 MDR cells viability, CellTiter-Glo, 72 h; activity change, negative = cytotoxicity: at 46.1 µM (top of the series)
# In short: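 Cells of the MDR subline KB-V1 are plated, dosed with compound at multiple concentrations, and incubated 72 h at 37 degrees C; CellTiter-Glo is then added and luminescence read after 10 min.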
# % is scaled to controls: 0 for no effect and ±100 for the full control effect; potency is read from the fitted curve at half-maximal effect.
SMILES,Potency,"activity change, negative = cytotoxicity"
O=C(NCc1ccccn1)c1cc(-c2ccc(Br)cc2)nc2ccccc12,active: 2.59 µM,–
COc1ccccc1NC(=O)c1ccc(-c2nc(COc3ccc(C)cc3)c(C)o2)cc1,"inconclusive: 18.4 µM [cytotoxic, single point]",–
COc1ccc(CN(Cc2ccc(C(=O)O)cc2)C(=S)Nc2cccc(C)c2)cc1OC,"inconclusive: 3.26 µM [rising, full curve]",–
CCOc1ccc(S(=O)(=O)N2CCN(C(=S)NCc3ccccc3)CC2)cc1,active: 18.4 µM,–
CCCS(=O)(=O)N1CCCC(C(=O)Oc2ccc(Cl)cc2)C1 (stereo unspecified),"inconclusive: 18.4 µM [rising, partial curve]",–
COc1ccc2c(c1)CCCC(Br)C2=O (stereo unspecified),"inconclusive: 18.4 µM [cytotoxic, partial curve]",–
COc1ccc(NC(=O)CSc2nncn2N)c(OC)c1,"inconclusive: 4.11 µM [rising, full curve]",–
CCCCn1c(CN2CCN(C(=O)OCC)CC2)nc2c1c(=O)n(C)c(=O)n2C,active: 13 µM,–
NC(=O)CSc1nc(-c2ccccc2)nc2c1CCCC2,inactive,–
COc1ccccc1CNC(=O)CCNS(=O)(=O)/C=C/c1ccc(C)cc1,inactive,–
NC(=S)NN=C1C2CC3CC(C2)CC1C3,"inconclusive: 4.11 µM [rising, full curve]",–
COc1ccc([C@H]2CC(=O)C=C(c3cccc4c3Oc3ccccc3S4)C2)cc1,"inconclusive: 29.1 µM [cytotoxic, single point]",–
CCCCCn1c(SCC2CCCO2)nc2cc(C(=O)N3CCC(C(N)=O)CC3)ccc2c1=O (stereo unspecified),"inconclusive: 18.4 µM [cytotoxic, partial curve, poor fit]",–
O=C(NC(=S)Nc1ccc(N2CCCCC2)cc1)c1ccc2c(c1)OCCO2,"inconclusive: 5.17 µM [cytotoxic, full curve]",–
C#CCSc1nccc(-c2nn(-c3ccc(C)cc3)ccc2=O)n1,"inconclusive: 18.4 µM [cytotoxic, single point]",–
CC1(C)CC(=O)c2sc(NC(=O)c3cccs3)nc2C1,"inconclusive: 23.1 µM [cytotoxic, single point]",–
Cc1ccc(S(=O)(=O)N2CCN(C(=O)c3cc(-c4cccs4)nn3-c3ccccc3)CC2)cc1,active: 4.61 µM,–
CC(=O)NCCCc1nc2ccccc2n1Cc1cc(C)ccc1C,"inconclusive: 29.1 µM [cytotoxic, partial curve, poor fit]",–
CN(Cc1nccs1)C(=O)C1CCC(=O)N(CCc2ccc(Cl)cc2)C1 (stereo unspecified),inactive,–
Cc1ccc(C)c(N2CCN(C(=O)CN3CCSc4ccccc43)CC2)c1,"inconclusive: 14.6 µM [cytotoxic, single point]",–
COc1cccc(N=Nc2c(=O)[nH]n3c(C)cc(C)nc23)c1,"inconclusive: 29.1 µM [cytotoxic, single point]",–
CCN(CC)c1ccc(C(=O)Nc2cccc(F)c2)cc1,inactive,–
COc1cc(OC)cc(C(=O)N[C@H](C(=O)OCn2nnc3ccccc3c2=O)C(C)C)c1,"inconclusive: 20.6 µM [cytotoxic, single point]",–

SMILES,Potency,"activity change, negative = cytotoxicity"
Cc1cc(C)c(S(=O)(=O)c2cccc(Br)c2C)c(=O)[nH]1,"inconclusive: 29.1 µM [cytotoxic, single point]",–
COC(=O)c1cccc(NC(=O)CCc2cc(OC)c(OC)c(OC)c2)c1,inactive,–
COc1ccccc1-c1ccc(SCC(=O)NC2CCCCC2)nn1,"inconclusive: 11.6 µM [cytotoxic, partial curve, poor fit]",–
COc1cccc(CCNC(=O)C2CCC(=O)N(C3CC3)C2)c1OC (stereo unspecified),"inconclusive: 20.6 µM [rising, single point]",–
COc1ccc(C(=O)N2CCOCC2c2cc(C(=O)NCc3ccccc3)no2)cc1 (stereo unspecified),"inconclusive: 8.2 µM [cytotoxic, partial curve]",–
Cc1c(Cl)cccc1NC(=O)N1CCN(C(=O)c2ccco2)CC1,–,inconclusive: -1.03%
CN(C)CCn1c2c(c(SCC(=O)Nc3cccc4ccccc34)nc1=O)CCC2,inactive,–
COCCn1c(=N)c(C(=O)NCC2CCCO2)cc2c(=O)n3ccccc3nc21 (stereo unspecified),"inconclusive: 29.1 µM [rising, single point]",–
CCOc1ccc(CCNC(=O)CSc2nnnn2-c2ccccc2Cl)cc1OCC,"inconclusive: 6.51 µM [cytotoxic, partial curve]",–
COc1ccccc1C1CC(c2ccc(F)cc2)Nc2ncnn21 (stereo unspecified),inactive,–
O=C1Nc2ccc(S(=O)(=O)N3CCCC3)c3cccc1c23,"inconclusive: 18.4 µM [cytotoxic, partial curve]",–
COc1cccc(CNc2ncnc3cc(Cl)ccc23)c1,"inconclusive: 10.3 µM [cytotoxic, partial curve]",–
Cc1sc(NC(=O)CSC2=NCCS2)nc1-c1ccccc1,inactive,–
O=C1Cc2c(-c3ccccc3)cc(-c3cccc(Cl)c3)nc2-c2ccccc2N1,inactive,–
CCN(CC)S(=O)(=O)c1ccc(Nc2ccc(-c3ccc4c(c3)OCCO4)nn2)cc1,inactive,–
CCC[C@H]1COCCS(=O)(=O)N1Cc1ccc(F)cc1,"inconclusive: 23.1 µM [cytotoxic, partial curve, poor fit]",–
CC(=O)c1cccc(NC(=O)COC(=O)c2ccc3c(c2)OCCO3)c1,"inconclusive: 7.31 µM [rising, partial curve]",–
COC(=O)CSc1cc(C)nc(SC)n1,"inconclusive: 8.2 µM [rising, partial curve, poor fit]",–
CCc1ccccc1NC(=O)CN(C)C(=O)CSc1nc2cc(Cl)ccc2s1,active: 14.6 µM,–
COc1cccc(CNC(=O)Cn2c(=O)cc(C(F)(F)F)c3c(C)nn(C)c32)c1OC,inactive,–
Cc1c(OCC(=O)NC2CCN(Cc3ccccc3)CC2)ccc2c3c(c(=O)oc12)CCC3,"inconclusive: 1.3 µM [cytotoxic, partial curve, poor fit]",–
Clc1cccc(OCCCCCN2CCOCC2)c1,inactive,–
COc1ccc2ccccc2c1/C=N\n1c(C)cc(C)c(C(N)=O)c1=O,"inconclusive: 20.6 µM [cytotoxic, single point]",–

# Arranged by molecular weight (rising): eleven of the compounds above
SMILES,Potency,"activity change, negative = cytotoxicity"
COC(=O)CSc1cc(C)nc(SC)n1,"inconclusive: 8.2 µM [rising, partial curve, poor fit]",–
Clc1cccc(OCCCCCN2CCOCC2)c1,inactive,–
COc1cccc(CNc2ncnc3cc(Cl)ccc23)c1,"inconclusive: 10.3 µM [cytotoxic, partial curve]",–
CCC[C@H]1COCCS(=O)(=O)N1Cc1ccc(F)cc1,"inconclusive: 23.1 µM [cytotoxic, partial curve, poor fit]",–
COc1ccc2ccccc2c1/C=N\n1c(C)cc(C)c(C(N)=O)c1=O,"inconclusive: 20.6 µM [cytotoxic, single point]",–
Cc1sc(NC(=O)CSC2=NCCS2)nc1-c1ccccc1,inactive,–
Cc1cc(C)c(S(=O)(=O)c2cccc(Br)c2C)c(=O)[nH]1,"inconclusive: 29.1 µM [cytotoxic, single point]",–
O=C1Cc2c(-c3ccccc3)cc(-c3cccc(Cl)c3)nc2-c2ccccc2N1,inactive,–
COc1ccc(C(=O)N2CCOCC2c2cc(C(=O)NCc3ccccc3)no2)cc1 (stereo unspecified),"inconclusive: 8.2 µM [cytotoxic, partial curve]",–
CCc1ccccc1NC(=O)CN(C)C(=O)CSc1nc2cc(Cl)ccc2s1,active: 14.6 µM,–
CCN(CC)S(=O)(=O)c1ccc(Nc2ccc(-c3ccc4c(c3)OCCO4)nn2)cc1,inactive,–
